No constants are given. Whether binding was seen depends on the method and setting. Binding seen in cells or lysates may run through a third protein. Some entries that bind do so weakly or less than the wild type.
Molecular target: FLAG-tagged CDH1 (UniProt Q9UM11)
Assay: co-IP; HEK293T cells co-transfected with FLAG-CDH1 and STYK1/NOK or its mutants or truncated forms, 10 μM MG132 for 4 h before harvesting; about 2000 μg lysate with anti-FLAG affinity gel at 4 °C overnight, washed 6 times with 1xPBS, immunoblot

Amino acid sequences for entries named in this document (tags omitted).
UniProt Q9UM11: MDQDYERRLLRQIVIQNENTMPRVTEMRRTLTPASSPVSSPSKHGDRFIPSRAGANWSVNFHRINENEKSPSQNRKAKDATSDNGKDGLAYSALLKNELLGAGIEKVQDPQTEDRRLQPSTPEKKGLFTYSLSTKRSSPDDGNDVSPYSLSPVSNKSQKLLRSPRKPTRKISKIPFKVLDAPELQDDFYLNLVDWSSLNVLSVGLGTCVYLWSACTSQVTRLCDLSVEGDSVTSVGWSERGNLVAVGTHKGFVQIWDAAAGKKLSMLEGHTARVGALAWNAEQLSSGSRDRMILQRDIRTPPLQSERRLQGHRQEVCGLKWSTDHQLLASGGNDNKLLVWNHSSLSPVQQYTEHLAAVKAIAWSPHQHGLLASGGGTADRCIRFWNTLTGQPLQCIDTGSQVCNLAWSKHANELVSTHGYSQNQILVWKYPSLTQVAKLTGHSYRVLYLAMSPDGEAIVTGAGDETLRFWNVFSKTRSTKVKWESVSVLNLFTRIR

B1: STYK1/NOK (protein, UniProt Q6J9G0 1-422)
chain: MGMTRMLLECSLSDKLCVIQEKQYEVIIVPTLLVTIFLILLGVILWLFIREQRTQQQRSGPQGIAPVPPPRDLSWEAGHGGNVALPLKETSVENFLGATTPALAKLQVPREQLSEVLEQICSGSCGPIFRANMNTGDPSKPKSVILKALKEPAGLHEVQDFLGRIQFHQYLGKHKNLVQLEGCCTEKLPLYMVLEDVAQGDLLSFLWTCRRDVMTMDGLLYDLTEKQVYHIGKQVLLALEFLQEKHLFHGDVAARNILMQSDLTAKLCGLGLAYEVYTRGAISSTQTIPLKWLAPERLLLRPASIRADVWSFGILLYEMVTLGAPPYPEVPPTSILEHLQRRKIMKRPSSCTHTMYSIMKSCWRWREADRPSPRELRLRLEAAIKTADDEAVLQVPELVVPELYAAVAGIRVESLFYNYSML
binding: binds

— PMC9732331
